Data reported in patent US10087245 (Hoffmann-La Roche, dated 2018).
No constants are given. Whether binding was seen depends on the method and setting. Some binding calls cover weakened binding; strength is not graded here. Values belong to the binder of their own block, whether it stands above or below them.

Amino acid sequences for entries named in this document (tags omitted). A change or cut given only in a name is not applied to a line headed by its entry. Chains listed by the source or under a name are the forms on record and can include a tag or linker.
tau in NFTs of Tg4510 transgenic mice (P10636, form named): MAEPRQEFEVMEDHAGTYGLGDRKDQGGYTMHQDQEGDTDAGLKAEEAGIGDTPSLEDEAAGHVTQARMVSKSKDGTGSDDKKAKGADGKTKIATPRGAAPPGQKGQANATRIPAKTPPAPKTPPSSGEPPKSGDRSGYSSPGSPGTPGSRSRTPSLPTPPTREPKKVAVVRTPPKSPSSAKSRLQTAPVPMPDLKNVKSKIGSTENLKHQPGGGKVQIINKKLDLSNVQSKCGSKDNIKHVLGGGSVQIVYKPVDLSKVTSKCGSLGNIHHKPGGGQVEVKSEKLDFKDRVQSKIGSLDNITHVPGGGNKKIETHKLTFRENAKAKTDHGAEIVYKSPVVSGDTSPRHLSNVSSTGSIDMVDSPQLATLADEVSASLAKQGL
tau-positive glial inclusions in the FTD case (oligodendroglial coiled bodies) and in the PSP case (astrocytic tufts) (P10636, form named): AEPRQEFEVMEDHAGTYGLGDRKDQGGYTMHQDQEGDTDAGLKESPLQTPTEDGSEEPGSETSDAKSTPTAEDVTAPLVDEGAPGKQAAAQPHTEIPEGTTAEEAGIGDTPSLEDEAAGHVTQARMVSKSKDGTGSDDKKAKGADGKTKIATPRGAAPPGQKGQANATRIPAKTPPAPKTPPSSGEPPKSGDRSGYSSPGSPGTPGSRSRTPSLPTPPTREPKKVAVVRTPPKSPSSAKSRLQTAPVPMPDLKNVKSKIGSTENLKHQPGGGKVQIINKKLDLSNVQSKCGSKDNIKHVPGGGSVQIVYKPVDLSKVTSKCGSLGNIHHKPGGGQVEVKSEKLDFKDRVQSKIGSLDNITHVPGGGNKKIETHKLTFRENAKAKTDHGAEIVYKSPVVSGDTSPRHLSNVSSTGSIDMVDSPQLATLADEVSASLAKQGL

Columns and labels:
[1] = target: tau in NFTs of Tg4510 transgenic mice (UniProt P10636); assay: IHC on Tg4510 mouse free-floating sections
[2] = target: tau in neurofibrillary tangles (NFTs) in paraffin sections from AD patients (human) (UniProt P10636); assay: IHC on human paraffin sections
[3] = target: tau-positive glial inclusions in the FTD case (oligodendroglial coiled bodies) and in the PSP case (astrocytic tufts) (human) (UniProt P10636); assay: IHC on human paraffin sections
[4] = target: tau in NFTs of Tg4510 transgenic mice (UniProt P10636); assay: IHC on Tg4510 brain slices, VHH at 2 µg/ml, anti-His detection
[5] = target: tau in NFTs of Tg4510 transgenic mice (UniProt P10636); assay: conclusion of Example II (ELISA and IHC)
[6] = target: tau in NFTs of Tg4510 transgenic mice (UniProt P10636); assay: IHC with rabbit anti-VHH antibodies four hours after intravenous injection, Tg4510 mice

binding [1]: binds | binding [2]: binds | binding [3]: binds
B1: VHH Tau-A2 (VHH)
VHH: EVQLQASGGGLVQAGGSLRLSCAASGRSFSGSTMEWYRQAPGKERKFVAAIRTISSRTYYVDSVKGRFTISRDSTKNTVYLQLNSLKVEDTAVYYCAARFSGTIGTTSSVDYWGQGTQVTVSS
notes: Alpaca VHH, expressed in E. coli with a His-tag or a Strep-tag; monomeric by DLS; not shown: 6-Histidine tag (pET23d) or C-terminal Strep-tag (pASK IBA2)

binding [4]: binds
B2: VHH Tau-A2-SH (VHH)
VHH: AAQLQASGGGLVQAGGSLRLSCAASGRSFSGSTMEWYRQAPGKERKFVAAIRTISSRTYYVDSVKGRFTISRDSTKNTVYLQLNSLKVEDTAVYYCAARFSGTIGTTSSVDYWGQGTQVTVGG

binding [4]: binds | binding [5]: binds
B3: VHH Tau-A2var-SH (VHH)
VHH: DVQLEASGGGLVQAGGSLRLSCAASGRSFSGSTMEWYRQAPGKERKFVAAIRTGSSRTYYVDSVKGRFTISRDSTKNTVYLQLNSLKGEDTAVYYCAARFSGTIGTTSSVDYWGQGTQVTVGG

binding [6]: binds
B4: VHH Tau-A2var-S-(DOTA/Gd)3 (VHH)
VHH: DVQLEASGGGLVQAGGSLRLSCAASGRSFSGSTMEWYRQAPGKERKFVAAIRTGSSRTYYVDSVKGRFTISRDSTKNTVYLQLNSLKGEDTAVYYCAARFSGTIGTTSSVDYWGQGTQVTVGG
modifications: maleimido-(DOTA/Gd)3 on the engineered C-terminal cysteine
